In the RNAGym collection of RNA variant scans (doi:10.1126/science.aae0568) one finds yeast fitness data, which are given here for 38 variants.

This sample is rich in variants without activity.

Sequences and labels used below:
B1: tRNA (parent)
chain: GUUCCGUUGGCGUAAUGGUAACGCGUCUCCCUCCUAAGGAGAAGACUGCGGGUUCGAGUCCCGUACGGAACG

Variants of B1 are the subject of the data set. Nature of the data set: yeast fitness relative to wild type (ratio to wild type); higher = fitter; tRNA-Arg(CCU), competitive growth, 37 C, YPD. Summed up: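 Changes in genotype frequencies gave Darwinian fitness relative to wild type. Frequencies were read by 100-nucleotide paired-end sequencing of gene amplicons before and after pooled Saccharomyces cerevisiae strains, carrying tRNA-Arg(CCU) gene variants at the native locus, were competed in YPD at 37°C for 24 hours in six replicates. A genotype was kept only with ≥ 100 starting reads, and estimates < 0.5 were set to 0.5.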
In the case of GUUCCGUUGGCGCAAUGGUAACGCGUCUCCCUCCUAAGGAGAAGACUGCGGGUUCGAGUCCCGUACGGACCG, the yeast fitness worked out at 1.09.

GUUCCGUUGGCGUAAUGGUAACGCGUCUCCCUCCUAAGGAGAAGACUGCGGGUUCGAGUCCCGAAUGGAGCG: the yeast fitness is at most 0.5.

In the case of GUUCCGUAGGCGUAAUGGUAACGCGUCUCCCUGCUAAGGAGCAGACUGCGGGUUCGAGUCACGUCCGGAACG, the yeast fitness was at most 0.5.

For the variant GGUCCGUAGGCGUAAUGGUAACACGGCUCCCUCCUAAGGAGAGGACUGCGGGUUCGAGUCCCGUACGGAACG, the yeast fitness was determined as 0.576.

As to GUUUCGUUGGCAUAAUGGUAACGCGUCUCCCUCCUAAGGAGUAGACUGCGGGUUCGAGUCCCGUACGAAACG, the yeast fitness was at most 0.5.

In the case of GUUCCGUUGGCGUAAUGGUAACGUGUCUCCCUCCUGAGGAGAAGACUGCGGGUUGGAGUCCCGUACGGAACG, the yeast fitness is at most 0.5.

Take GUACCGUUGGCGUUAUGGUAACGCGUCUCCCUCCUAAGGAGAAGACUGCGGGUUCGAGUCACGUACGGAACG: the yeast fitness is at most 0.5.

As to GUUCCGUUGGCGUAUUGGUAACGCGUGUCCCUCCUAAGGAGAAGACUGCGGGUUCGAGUCCCAUACAGAACG, the yeast fitness was at most 0.5.

With GUUCCGUUGGCGUCAUGGUAACGCGUCUCCCUCCUAAGGGGAAGACUGCGGGUUCGCGUCCCGUACGGAACG, the yeast fitness is at most 0.5.

On to GUUCCGUUGGCGUAAUGGUAACGCGUCUCCCUGCUAAGAAGAAGACUGCGGGUUCGAGUCCCGUAGGGAACG, for which the yeast fitness is at most 0.5.

In the case of GUUCCGUUGGCGUAAUGGUAACGCGUCUCCGUCCUAAGGAGAAGACUGCGGGUUUGAGUCCCGUACGGUACG, the yeast fitness was at most 0.5.

As to GUUCCGUUGGCGUAAUGGUAACGGGUCUCCCUCCUAAGGACAAGACUGCGGGUUCGAGUCCCGUCCGGAACG, the yeast fitness is at most 0.5.

In the case of GUUCCGUUGGCGUAUUGGUAACGCGUCUUCCUCCUAAGGAGAAGACUGCGGGUUCGAGUCCCGUACGGCACG, the yeast fitness is at most 0.5.

As to GUUCCGUUGGCAUAAUGGUAUCGCGUCUCCCUCCUAAGGAGAAGACUGCGGGUUCGAGUCCCGUACGGAACG, the yeast fitness was 0.729.

Consider GUUCAGUUGGCGUAAUCCUAACGCGUCUCGCUCCUAAGGAGAAGACUGCGGGUUCGAGGCCCGUAAGGAACG, for which the yeast fitness is at most 0.5.

As to GUUCCGUUGGCGUAAUGGUUACGCGUCUCCCUCCUCAGGAGAAGACUGCGGGUUCGAGUACCGUACGGAACG, the yeast fitness was at most 0.5.

As for GUUCCGUUGGCGUAAUGGUAAGGCGUCUCCCUCCUGGGGAGAAGACUGCGGGUUCGAGUGCCGUACGGGACG, the yeast fitness was at most 0.5.

Turning to GGUCCGUUGGGGUAAUGGUAACGCGUCUCCCUCCUAAGGAGAAGACUGCGGGUCCGAGUCCCGUACGGAACG, the yeast fitness was at most 0.5.

Consider GUUCCGUUGGCAUAAUGGUAACCCAUCUCCCUCCUAAGGAGAAGACUGCGGGUUCGAGUCCCGUACGGAACG, for which the yeast fitness is at most 0.5.

For the variant GUUCCGUUAACGUAAUGGUAACGCGUCUCCCUCCUAAGGAGAAGACUGCGGGUUCGAGUCCCGUAUGGAACG, the yeast fitness was at most 0.5.

Regarding GUUCCGUUGGCGUAAUGGUAACGCGUCUCCCUCCUAAGGAGAAGACUGCGGGUUCGAGUCCUGAACCGAACG, the yeast fitness is at most 0.5.

For GAUCAGUUGGCGUAAUGGUAACGCGUCUCCCUCCUAAGGAGAAGACUGCGGGUUCGAGUCCCGUUCGGAACG, the yeast fitness is at most 0.5.

On to GUUCCCUUGGGGUAAUGGUAACGCGUCUCCCUCCUAAGGAGAAGACUGCGGGUUCGUGUCCCGUACGGAACG, for which the yeast fitness is at most 0.5.

On to GUUCCGUUGGCGUUAUGGUAACGCGUCUCCCACCUAGGGAGUAGACUGCGGGUUCGAGUCCCGUACGGAACG, for which the yeast fitness is at most 0.5.

Turning to GUUCCGUUGGCGUAAUGGUAACGCGUCUCCCUCCUAAGGAGAAGACGGCGGGUUCAAGUCCCGUGUGGAACG, the yeast fitness is at most 0.5.

Regarding GUUCCGUUGGCGUAAUGGUAACGCGUCUCCCUCAUAAGGAGACGACUGCAGGUUCGAGUCCCGUCCGGAACG, the yeast fitness is at most 0.5.

Regarding GUUCCGUUGGCGUAAUGGUAACGCGUCUGCCUCCUAAGGAGAUGACUGAGGGUUCGAGUACCGUACGGAACG, the yeast fitness is at most 0.5.

Take GUUCCGUUGGCGUAAUGGCAACGCGUCUCCCUCCUAAGGAGAAGACUGCGGGUUCGAGUGCCGUAGGGGACG: the yeast fitness is at most 0.5.

With GUUCCGUUGGCGUAAUGGUAACGCGUCUCCCUCCUAAGGAAAUGGCUGCGGGUUCAAGUCCCGUACGGAACG, the yeast fitness is at most 0.5.

Take GGUCUGUUGGCGUAAUGGUACCGCGUCUCCCUCCUAAGGAGAAGACUGCGGGUUCGAGUGCCGUACGGAACG: the yeast fitness was at most 0.5.

Take GUUCCGUUGGCGUAAUGGUAGCGCGUCUCCCUCCUAAGGAGAAGACUGCGGGUUCGACCCCCAUACGGAACG: the yeast fitness was 0.701.

Turning to GUUCCGUUGGCGUAAUGGUAACGCGUCUCCCUCUUAAGGAGCAGACUGCGGGUUCGAGUCCCGUAUGGAACG, the yeast fitness was at most 0.5.

Turning to GUUCCGUUGGCGUAAUGGUAACGUGUGUCCCUCCUAAGGAGCAGACUGAGGGUUCGAGUCCCGUACGGAACG, the yeast fitness is at most 0.5.

For the variant GUUCCGUUGGCGUAUUGGUAACGCGUCUCCCUCCUAGGGAGAAGACUGCGGGUUCGAGUCCCGUAGGGAACG, the yeast fitness is at most 0.5.

Regarding GUUGCGUUGGCGUAAUGGUAACGCGUCUCCGUCCUACGGAGAAGACUGCAGGUUCGAGUCCCGUACGGAACG, the yeast fitness was at most 0.5.

Consider GUUCCGUUGGCGGAAUGGUAACGCGUCACACUCCUAAGGAGAAGACUGCGGGUUCGAGUCCCGUACGGAACG, for which the yeast fitness was at most 0.5.

With GUUCCGAUGGCGUAAUGGUAACGCGUCUACCUCCUAAGGAGAAGACUGCCGGUCCGAGUCCCGUACGGAACG, the yeast fitness is at most 0.5.

Consider GUUCCGUUGGUGUAUUGGUAACGCGUGUCCCUCCUAAGGAGAAGACUGCGGGUUGGAGUCCCGUACGGAACG, for which the yeast fitness was at most 0.5.
